Experimental data from the supplement of paper PMC10727501.
The list shows a part of the results. This data set is noisy: repeats of one test often differ as much as different tests do.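 Researchers measured free-swimming zebrafish larvae's O-bend response probability to dark flashes (naive: first five; training: remaining flashes of four 60-flash blocks; test: later 60-flash block) and OMR turning toward alternating leftward/rightward LED motion. Six treated larvae were compared to sixty 0.1% DMSO controls, with |SSMD|≥2 marking a hit.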

Columns and labels:
Conditions in all cases: 10 µM; pre-incubation: 30-90 min
[1] = tested on: Danio rerio larvae (5 dpf, TLF); experiment: OMR-Perf (SSMD vs DMSO vehicle); higher = higher than vehicle (e.g. higher dark-flash O-bend response probability, or better optomotor performance)
[2] = tested on: Danio rerio larvae (5 dpf, TLF); experiment: Prob-Test (SSMD vs DMSO vehicle); higher = higher than vehicle (e.g. higher dark-flash O-bend response probability, or better optomotor performance)
[3] = tested on: Danio rerio larvae (5 dpf, TLF); experiment: Prob-Naive (SSMD vs DMSO vehicle); higher = higher than vehicle (e.g. higher dark-flash O-bend response probability, or better optomotor performance)
[4] = tested on: Danio rerio larvae (5 dpf, TLF); experiment: Prob-Train (SSMD vs DMSO vehicle); higher = higher than vehicle (e.g. higher dark-flash O-bend response probability, or better optomotor performance)

Row | Compound | OMR-Perf [1] | Prob-Test [2] | Prob-Naive [3] | Prob-Train [4]
1 | CC1=C(C(=O)O)N2C(=O)[C@@H](NC(=O)[C@H](N)c3ccccc3)[C@@H]2SC1 [Cephalexin] | 1.56 | 0.684 | 0.0311 | 0.762
2 | CCn1cc(C(=O)O)c(=O)c2cnc(N3CCCC3)nc21 [Piromidic Acid] | 0.201 | 1.48 | -0.288 | 1.06
3 | Cl.NC1=NCC2c3ccccc3Cc3ccccc3N12 (stereo not drawn) [Epinastine HCl] | -0.585 | -0.409 | -0.148 | -0.591
4 | CCOC(=O)c1ncn2c1CN(C)C(=O)c1cc(F)ccc1-2 [Flumazenil] | 0.0361 | 0.0295 | -0.276 | 0.0627
5 | CO[C@H]1C[C@H]2CC[C@@H](C)[C@@](O)(O2)C(=O)C(=O)N2CCCC[C@H]2C(=O)O[C@H]([C@H](C)C[C@@H]2CC[C@H](OC(=O)C(C)(CO)CO)[C@H](OC)C2)CC(=O)[C@H](C)/C=C(\C)[C@@H](O)[C@@H](OC)C(=O)[C@H](C)C[C@H](C)/C=C/C=C/C=C/1C | -0.383 | 0.318 | -0.229 | -0.247
6 | CCOc1ccc2nc(S(N)(=O)=O)sc2c1 [Ethoxzolamide] | -0.919 | -1.85 | -1.05 | -1.36
7 | CC[C@@H]1C(=O)N(C)c2cnc(Nc3ccc(C(=O)N[C@H]4CC[C@H](N5CCN(CC6CC6)CC5)CC4)cc3OC)nc2N1C(C)C [Volasertib (BI 6727)] | -0.376 | -0.0472 | -0.397 | -0.426
8 | CN1CCC[C@@H]1CCO[C@](C)(c1ccccc1)c1ccc(Cl)cc1.O=C(O)/C=C/C(=O)O [Clemastine Fumarate] | -0.346 | -0.76 | 0.759 | 0.0846
9 | COc1cccc2c1C(=O)c1c(O)c3c(c(O)c1C2=O)C[C@@](O)(C(=O)CO)C[C@@H]3O[C@H]1C[C@H](N)[C@H](O[C@@H]2CCCCO2)[C@H](C)O1 [Pirarubicin] | -0.3 | -0.238 | -0.0458 | -0.656
10 | Cl.N=C(N)NCCCC(N)C(=O)O (stereo in doubt) [L-Arginine HCl] | 0.498 | -0.57 | 0.421 | -0.306
11 | O=C(NCCCNc1nc(Nc2cccc(NC(=O)N3CCCC3)c2)ncc1I)c1cccs1 | -0.274 | -0.186 | 0.0951 | -0.245
12 | CCc1cnn2c(NCc3ccc[n+]([O-])c3)cc(N3CCCC[C@H]3CCO)nc12 | 0.365 | 1.13 | 0.145 | 0.716
13 | CN(C)[C@@H]1C(O)=C(C(N)=O)C(=O)[C@@]2(O)C(O)=C3C(=O)c4c(O)cccc4[C@@](C)(O)[C@H]3C[C@@H]12.Cl [Tetracycline HCl] | -0.392 | -0.0987 | -0.683 | -0.719
14 | Cc1ccc(S(=O)(=O)Nc2nc3ccccc3nc2Nc2ccc3nsnc3c2)cc1 | -0.276 | -0.219 | -0.605 | -0.485
15 | CN(c1nccc(=O)[nH]1)C1CCN(c2nc3ccccc3n2Cc2ccc(F)cc2)CC1 [Mizolastine (Mizollen)] | 0.256 | 0.124 | -0.306 | -0.182
16 | O=c1cc(-c2ccc(O)c(O)c2)oc2cc(O)cc(O)c12 [Luteolin] | 0.161 | -0.175 | 0.0696 | -0.0217
17 | O=C(NCc1cccc(O)c1)Nc1nc(-c2ccncc2)cs1 | 0.133 | -0.559 | -0.202 | -0.292
18 | COc1cc2nc(N3CCN(C(=O)C4CCCO4)CC3)nc(N)c2cc1OC.Cl.O.O (stereo not drawn) [Terazosin HCl] | -0.362 | 0.201 | 0.394 | -0.15
19 | CC(=O)C1CCC2C3C[C@H](C)C4=CC(=O)CCC4(C)C3C(O)CC12C (stereo partly drawn) [Medrysone] | -0.143 | 0.4 | 0.153 | -0.497
20 | CC(C)[C@H](N)C(=O)OCC(CO)OCN1C=NC2C(=O)NC(N)=NC21.Cl (stereo partly drawn) [Valganciclovir HCl] | -0.622 | -0.012 | 0.478 | 0.623
21 | Nc1c(CC(=O)[O-])cccc1C(=O)c1ccc(Br)cc1.[Na+] [Bromfenac Sodium] | 0.366 | -0.464 | -0.144 | -0.561
22 | CS(=O)c1ccc(-c2nc(-c3ccc(F)cc3)c(-c3ccncc3)[nH]2)cc1 (stereo not drawn) | 0.446 | -0.0339 | 0.17 | -0.281
23 | CC1=C(/C=C/C(C)=C/C=C/C(C)=C/C=C/C=C(C)/C=C/C=C(C)/C=C/C2=C(C)CCCC2(C)C)C(C)(C)CCC1 [Beta Carotene] | 0.103 | -0.24 | 0.454 | 0.11
24 | Cn1cc(/C=C/C(=O)c2cccc(F)c2)cc1/C=C/C(=O)NO | -0.4 | -0.263 | -0.613 | -0.642
25 | CN1CCN(c2cccc(Nc3nc4c(-c5ccc(S(C)(=O)=O)cc5)cccn4n3)c2)CC1 | -0.0699 | -0.412 | 0.319 | -0.685
26 | Nc1nccc2c1ncn2[C@@H]1C=C(CO)[C@@H](O)[C@@H]1O [3-Deazaneplanocin A (DZNeP)] | 0.667 | 0.106 | -0.18 | 0.334
27 | Oc1ccc(OCc2ccccc2)cc1 [Monobenzone] | -0.375 | -1.08 | -0.585 | -0.774

2 records picked at random from the list so far:
Row | Compound | OMR-Perf [1] | Prob-Test [2] | Prob-Naive [3] | Prob-Train [4]
8 | CN1CCC[C@@H]1CCO[C@](C)(c1ccccc1)c1ccc(Cl)cc1.O=C(O)/C=C/C(=O)O [Clemastine Fumarate] | -0.346 | -0.76 | 0.759 | 0.0846
18 | COc1cc2nc(N3CCN(C(=O)C4CCCO4)CC3)nc(N)c2cc1OC.Cl.O.O (stereo not drawn) [Terazosin HCl] | -0.362 | 0.201 | 0.394 | -0.15
